These results are taken from publication PMC7768195.

Chains of the proteins cited; added tags and fusions are not shown.
UniProt Q61188: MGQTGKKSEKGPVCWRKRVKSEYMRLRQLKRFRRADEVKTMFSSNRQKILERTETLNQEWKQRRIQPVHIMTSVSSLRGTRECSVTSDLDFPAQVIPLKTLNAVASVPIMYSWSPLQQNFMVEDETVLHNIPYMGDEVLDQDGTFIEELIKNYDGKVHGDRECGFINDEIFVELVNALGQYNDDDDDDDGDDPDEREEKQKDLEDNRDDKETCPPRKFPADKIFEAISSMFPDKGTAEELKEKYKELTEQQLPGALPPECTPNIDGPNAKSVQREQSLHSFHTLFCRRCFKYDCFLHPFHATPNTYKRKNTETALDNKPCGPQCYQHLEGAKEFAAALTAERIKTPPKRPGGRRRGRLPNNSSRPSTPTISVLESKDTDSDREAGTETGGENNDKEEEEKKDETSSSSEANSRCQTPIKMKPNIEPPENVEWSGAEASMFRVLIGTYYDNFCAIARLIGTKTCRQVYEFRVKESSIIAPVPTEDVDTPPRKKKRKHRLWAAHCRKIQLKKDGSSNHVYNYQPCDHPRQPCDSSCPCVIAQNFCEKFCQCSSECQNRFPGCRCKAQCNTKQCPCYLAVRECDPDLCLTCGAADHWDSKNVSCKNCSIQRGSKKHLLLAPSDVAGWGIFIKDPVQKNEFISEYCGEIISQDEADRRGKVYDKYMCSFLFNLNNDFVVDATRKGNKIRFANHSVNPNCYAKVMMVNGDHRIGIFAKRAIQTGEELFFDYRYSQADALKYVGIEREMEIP
UniProt Q9CQJ4: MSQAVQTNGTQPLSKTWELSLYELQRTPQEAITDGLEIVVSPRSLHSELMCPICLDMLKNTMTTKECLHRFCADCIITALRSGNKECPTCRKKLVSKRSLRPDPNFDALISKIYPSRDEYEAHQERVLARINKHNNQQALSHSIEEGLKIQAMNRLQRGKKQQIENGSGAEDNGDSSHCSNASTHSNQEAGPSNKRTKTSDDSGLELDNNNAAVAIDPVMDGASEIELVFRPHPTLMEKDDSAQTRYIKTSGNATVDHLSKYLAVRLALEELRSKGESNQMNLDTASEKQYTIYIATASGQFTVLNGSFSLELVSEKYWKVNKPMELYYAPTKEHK
UniProt Q99496: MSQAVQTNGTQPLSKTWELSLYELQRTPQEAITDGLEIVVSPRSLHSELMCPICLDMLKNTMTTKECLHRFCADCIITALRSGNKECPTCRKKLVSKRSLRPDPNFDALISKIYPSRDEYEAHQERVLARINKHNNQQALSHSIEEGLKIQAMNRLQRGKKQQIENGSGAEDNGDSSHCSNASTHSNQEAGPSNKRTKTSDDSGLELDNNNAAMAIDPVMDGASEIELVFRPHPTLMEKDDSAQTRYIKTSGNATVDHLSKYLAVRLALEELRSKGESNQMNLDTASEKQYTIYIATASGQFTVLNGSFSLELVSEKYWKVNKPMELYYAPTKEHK
UniProt Q921E6: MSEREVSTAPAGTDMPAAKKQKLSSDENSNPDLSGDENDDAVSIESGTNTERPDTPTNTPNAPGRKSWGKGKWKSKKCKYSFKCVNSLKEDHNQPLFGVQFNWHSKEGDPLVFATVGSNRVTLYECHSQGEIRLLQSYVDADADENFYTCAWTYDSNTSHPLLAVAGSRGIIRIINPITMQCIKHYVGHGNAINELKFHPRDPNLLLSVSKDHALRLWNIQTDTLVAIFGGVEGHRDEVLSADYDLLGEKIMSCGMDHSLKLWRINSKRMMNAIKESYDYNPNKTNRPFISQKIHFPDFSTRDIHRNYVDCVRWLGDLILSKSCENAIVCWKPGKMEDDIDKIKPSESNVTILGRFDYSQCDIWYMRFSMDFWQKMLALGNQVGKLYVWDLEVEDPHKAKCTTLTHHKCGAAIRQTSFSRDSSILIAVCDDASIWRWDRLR

Substitutions are numbered along the chain they refer to. Results are given in words; binding and its absence hold for the method and conditions named. Binding seen in cells or lysates may run through a third protein. Some binding calls cover weakened binding; strength is not graded here.

Experiment [1] addresses EZH2 (C3H10T1/2 cells) (mouse (endogenous in C3H10T1/2)) (UniProt Q61188). As to the kind of experiment: proximity ligation; Duolink II Fluorescence PLA kit on control or SS18-SSX1-V5-expressing C3H10T1/2 cells, fixed in 4% paraformaldehyde, permeabilised with 0.3% triton; foci counted in five fields.
For experiment [2], the target named is RING1B (C3H10T1/2 cells) (mouse (endogenous in C3H10T1/2)) (UniProt Q9CQJ4). The description is as above.
Experiment [3] has as its target RING1B (HSSYII cells) (human (endogenous in HSSYII)) (UniProt Q99496). As to the kind of experiment: proximity ligation; Duolink II Fluorescence PLA kit on HSSYII cells (endogenous HA-tagged SS18-SSX1), fixed in 4% paraformaldehyde, permeabilised with 0.3% triton; with or without CRISPR-mediated USP7 removal.

Consider “EED (C3H10T1/2 cells) (from UniProt Q921E6 1-441)”, for which the binding result in experiment [1] is on record as “binds”.

B1: RYBP (C3H10T1/2 cells) (protein, UniProt Q8CCI5 1-228)
chain: MTMGDKKSPTRPKRQAKPAADEGFWDCSVCTFRNSAEAFKCSICDVRKGTSTRKPRINSQLVAQQVAQQYATPPPPKKEKKEKVEKPDKEKPEKDKDISPSVTKKNTNKKTKPKSDILKDPPSEANSIQSANATTKTSETNHTSRPRLKNVDRSTAQQLAVTVGNVTVIITDFKEKTRSSSTSSSTVTSSAGSEQQNQSSSGSESTDKGSSRSSTPKGDMSAVNDESF
As for B1, the binding result in experiment [2] is “binds”.

B2: RYBP (HSSYII cells) (protein, UniProt Q8N488 1-228)
chain: B1 chain with P87Q, D97E
On to B2, for which the binding result in experiment [3] is recorded as “binds”.
